These results are taken from PubChem BioAssay AID493014 (National Center for Advancing Translational Sciences (NCATS), 2011).

This experiment in a line: qHTS Assay to Find Inhibitors of Chronic Active B-Cell Receptor Signaling. Particulars: ABC-DLBCL IkBa-CBG/CBR reporter, luminescence ratio (green luciferase fused to IkBa over red control in TMD8 lymphoma cells), 4 h. In short, it runs like this:
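Concentration-response series (up to 46 uM) were applied to TMD8 dual-reporter cells for 4 h at 37C with doxycycline. Green/red ratio, after filter-overlap correction, defined %Activity; red signal alone was normalised to basal cells and zero luminescence.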
(In general: qHTS replaces the single test concentration by a dilution series.)

Where [1] appears, read: measured here: CBR red luminescence, cell number.
The mark [2] stands for this setting: measured here: IkBa-CBG green luminescence.

Structures are written as SMILES. Some of the results follow. The main result of the screen is listed elsewhere. These columns were measured beside it and carry no call. Most of these compounds were active or inconclusive in the main read-out, so they are no random draw. Words in brackets tell the shape of the fitted curve; partial curves, single points and poor fits give uncertain potencies.

The AC50 is the concentration giving half of the maximal activity seen. In the case of `COC(=O)c1cccc(NC(=O)c2ccccc2)c1`, the AC50 under setting [1] was 8.91 µM [falling, single point].
Same read-out and setting: the figure for `CCn1c(SCC(=O)Nc2cc(OC)c(OC)c(OC)c2)nnc1-c1cccs1` is 35.5 µM [falling, single point]; for `N#Cc1cc2ccc(N3CCOCC3)cc2cc1C#N` it is 6.51 µM [rising, full curve, poor fit]; for `COCCN(CC(=O)Nc1cccc(C)c1C)C(=O)C1(c2ccc(Cl)cc2)CCC1` it is 8.2 µM [falling, single point].
For `COc1ccc2ccccc2c1-c1sc(Nc2ccccc2)n[n+]1-c1ccc(F)cc1`, under setting [1], the AC50 was 35.5 µM [falling, single point].
Consider `CCN(CC)CCCC(C)Nc1c2ccc(Cl)cc2nc2ccc(OC)cc12` (stereo not drawn), for which the AC50 under setting [1] was 11.2 µM [falling, partial curve, poor fit].
Regarding `COC(=O)c1[nH]c2ccc(C)cc2c1NC(=O)CN1CCCc2ccccc21`, the AC50 under setting [1] is 29.1 µM [falling, single point].
Regarding `CCOC(=O)CNC(c1ccccc1)c1cc(Br)ccc1NC(=O)CCN1CCOCC1` (stereo not drawn), the AC50 under setting [1] is 5.17 µM [falling, full curve].
For the compound `COc1ccc(/C(C)=N/Nc2nccnc2Cl)cc1`, under setting [1], the AC50 was 29.1 µM [falling, single point].
Still for that read-out and setting: the figure for `COc1ccc(C2=CC(=O)N(Nc3ccccc3)C2=O)cc1` is 11.2 µM [falling, partial curve, poor fit]; for `CC1CCCCC1NC(=S)Nc1ccc(SC(F)F)cc1` (stereo not drawn) it is 16.4 µM [falling, single point].
Still for that read-out and setting: the figure for `CCN1/C(=C2\C(=O)N(C)C(=S)N2c2ccccc2)C=Cc2ccccc21` is 31.6 µM [rising, single point]; for `CCN1C(=O)/C(=C2\SC(=S)N(NC(=O)c3ccccc3O)C2=O)c2ccccc21` it is 15.8 µM [falling, single point].
Still for that read-out and setting: the figure for `Clc1ccc2nc(COc3ccccc3)[nH]c2c1` is 11.2 µM [falling, partial curve]; for `COc1ccc(Cl)cc1NC(=S)N(Cc1cccnc1)Cc1ccco1` it is 35.5 µM [falling, single point]; for `Cc1ccc(SCc2cn3ccccc3n2)cc1` it is 25.1 µM [falling, single point].
In the case of `C/C=C/c1ccc(OCc2cc(=O)n3cc(C)ccc3n2)c(OC)c1`, the AC50 under setting [1] is 1.26 µM [falling, partial curve, poor fit].
Regarding `O=C(Nc1cccnc1)c1ccc(Cl)c(Cl)c1`, under setting [2], the AC50 was 35.5 µM [falling, partial curve, poor fit].
For the compound `COc1ccc(OCc2cc(C(=O)N3CCC(c4ccccc4)CC3)no2)c(Cl)c1`, the AC50 under setting [1] is 11.2 µM [falling, partial curve, poor fit].
Regarding `CC(/C=C/c1ccco1)=N\NC(=O)c1cc(C)[nH]n1`, the AC50 was 23.1 µM [falling, single point] under setting [1] and 25.9 µM [rising, partial curve, poor fit] under setting [2].
Turning to `CC(C)N(Cc1cc2ccccc2[nH]c1=O)C(=O)c1cccc([N+](=O)[O-])c1`, the half-maximal activity concentration (AC50) under setting [1] was 35.5 µM [rising, single point].
On the same count and under the same terms, the figure for `O=C(NC(=S)Nc1ccc2c(c1)OCCO2)c1ccccc1` is 5.01 µM [falling, full curve].
As for `CCCCC[C@H](O)/C=C/[C@H]1CCC(=O)[C@@H]1CCCCCCC(=O)N1CCCCC1CO` (stereo partly drawn), the AC50 under setting [2] is 0.501 µM [falling, full curve, poor fit].
Turning to `CC(C)COc1ccc(C(=O)N2C(=O)c3ccc(N)cc3C2=O)cc1`, under setting [1], the AC50 is 12.6 µM [falling, partial curve, poor fit].
Same read-out and setting: the same measure for `Cc1cc(C)n(-c2ccc(C(=O)Nc3ccc(C)c(S(=O)(=O)N4CCOCC4)c3)cc2)n1`: 22.4 µM [falling, single point].
On the same count and under the same terms, the figure for `CCOC(=O)c1[nH]c(C)c(C(=O)OCC(=O)N(C)C2CCS(=O)(=O)C2)c1C` (stereo not drawn) is 14.1 µM [falling, partial curve]; for `O=C(O)c1ccc(/C=C/c2nc3sc4c(c3c(=O)[nH]2)CCC4)cc1` it is 1.26 µM [falling, full curve].
Same read-out and setting: the figure for `CC(C)c1ccc(CNc2ccc3c(c2)ncn3C)cc1` is 0.708 µM [rising, full curve, poor fit]; for `Cc1ncsc1C(=O)Nc1nc2c(s1)CC(C)CC2` (stereo not drawn) it is 1.41 µM [falling, full curve]; for `CCC(C)c1ccccc1NC(=O)c1cc2cccc([N+](=O)[O-])c2[nH]1` (stereo not drawn) it is 17.8 µM [falling, single point].
Take `O=C(c1cccnc1)N1CCN(c2ccccc2Cl)CC1`: under setting [1], the AC50 was 35.5 µM [falling, single point].
As for `Cn1c(=O)[nH]c(=O)c2c1nc(Br)n2C/C=N/NC(N)=S`, the AC50 is 35.5 µM [rising, single point] under setting [1] and 35.5 µM [falling, single point] under setting [2].
Consider `COc1ccc(-c2cc(C3CC3)nc(N)c2C#N)cc1`, for which the AC50 under setting [1] was 35.5 µM [falling, single point].
For `COc1ccc(/C(=N\Nc2ccccc2C(=O)O)c2ccccc2)cc1`, under setting [1], the AC50 was 7.94 µM [falling, partial curve].
Turning to `O=C(CCc1ccc(S(=O)(=O)NC2CCCCC2)cc1)N(Cc1ccccc1)Cc1ccccc1`, the AC50 under setting [1] was 7.94 µM [falling, partial curve, poor fit].
Turning to `C=CCn1c(COc2ccccc2F)nnc1SCC(=O)c1c[nH]c2ccccc12`, the AC50 under setting [1] is 20.6 µM [falling, single point] and the AC50 under setting [2] was 25.9 µM [rising, partial curve, poor fit].
For `COc1ccc(CCNC(=S)NC(=O)c2ccc(Br)cc2)cc1OC`, the AC50 under setting [1] is 2.24 µM [rising, partial curve, poor fit].
Regarding `O=C1C2C3C=CC(C4CC34)C2C(=O)N1/N=C/c1ccc(-c2ccc(F)cc2[N+](=O)[O-])o1` (stereo not drawn), the AC50 under setting [1] is 2.59 µM [rising, single point].
Turning to `Cc1ccc(-c2nc(-c3ccccc3)no2)cc1`, under setting [1], the AC50 was 0.326 µM [rising, full curve, poor fit].
In the case of `COc1ccccc1-n1c(SCC(=O)NC2CCCCC2)nc2c(c1=O)SCC2`, the AC50 under setting [1] was 29.1 µM [falling, single point].
Take `Cc1ccnc(NC(=S)N2CCN(c3cccc(C(F)(F)F)c3)CC2)c1`: under setting [1], the AC50 is 25.1 µM [rising, single point].
The same measure, in the same setting: the same measure for `Cc1ccc(NC(=O)N2CCSc3ccccc32)cc1`: 15.8 µM [rising, single point].
For `COc1ccccc1N1CCN(/N=C/c2ccc(O)c(O)c2)CC1`, under setting [1], the AC50 is 35.5 µM [falling, single point].
Consider `c1csc(CNc2ncnc3nc[nH]c23)c1`, for which the AC50 under setting [1] was 25.9 µM [falling, single point].
`COc1ccc2nc(NC(=O)c3ccc(NS(=O)(=O)c4cccs4)cc3)sc2c1`: the AC50 under setting [1] is 9.2 µM [falling, partial curve].
`CC[C@@]12C(=O)N(c3ccc(OC)cc3)C(=O)N1[C@H](c1cccc(C)c1)[C@@H]1C(=O)N(Cc3ccccc3)C(=O)[C@@H]12`: the AC50 under setting [1] was 5.01 µM [falling, partial curve].
The same measure, in the same setting: the same measure for `CC(O)CSc1nc2c(c(=O)[nH]c(=O)n2C)n1CC(O)COc1ccccc1` (stereo not drawn): 17.8 µM [rising, single point].
Same read-out and setting: the figure for `CN(C)CC#Cc1cncc(C(=O)NNC(=O)Nc2ccc(Cl)cc2)c1` is 22.4 µM [falling, partial curve, poor fit]; for `COc1ccc(CCNC(=O)C(=O)NCC2CCCN2S(=O)(=O)c2cccs2)cc1OC` (stereo not drawn) it is 5.17 µM [rising, single point]; for `C/C(=N\NC(=O)c1sccc1C)c1ccncc1` it is 1.26 µM [falling, full curve].
Take `O=C(CCCN1C(=O)c2cccc3cccc(c23)C1=O)NC1CCS(=O)(=O)C1` (stereo not drawn): under setting [1], the AC50 was 12.6 µM [falling, single point].
Still for that read-out and setting: the same measure for `CCOc1ccc(S(=O)(=O)N2CCN(c3ccccc3)CC2)c2cccnc12`: 5.01 µM [falling, full curve, poor fit]; for `CC(C)(C)C(=O)O/N=C(\N)c1c(Cl)cccc1Cl`: 7.08 µM [rising, partial curve]; for `O=C(CCC(=O)N1CCOCC1)NCCc1ccc(F)cc1`: 6.51 µM [rising, single point].
As to `Cc1cccc(NC(=O)C2CCN(S(=O)(=O)c3cccc4nsnc34)CC2)n1`, the AC50 under setting [1] is 10 µM [falling, single point].
As to `Cn1c(Cn2nnc3ccccc32)nnc1SCC(=O)c1ccc(F)cc1`, the AC50 under setting [1] is 35.5 µM [falling, single point].
The same measure, in the same setting: the same measure for `O=C(CSc1ncn[nH]1)Nc1ccccc1C(=O)O`: 11.2 µM [falling, single point].
As for `C=CCOc1c(Br)cc(/C=N/O)cc1OCC`, the AC50 under setting [2] is 25.9 µM [falling, partial curve, poor fit].
Turning to `COc1ccccc1C(=O)NNC(=O)c1nn(Cc2ccccc2)c(=O)c2ccccc12`, the AC50 is, setting by setting: under setting [1], 17.8 µM [rising, partial curve]; under setting [2], 22.4 µM [falling, single point].
Turning to `CSc1nc2nc(C(F)(F)F)cc(-c3ccccc3)n2n1`, under setting [1], the AC50 is 32.6 µM [falling, single point].
The same measure, in the same setting: the same measure for `O=C1CN(C(=O)CSc2nnnn2-c2ccc(Cl)cc2)c2ccccc2N1`: 7.94 µM [rising, partial curve].
On the same count and under the same terms, the same measure for `O=C(Nc1ccc(F)cc1)c1cccc(N2C(=O)C3C4C=CC(C5CC45)C3C2=O)c1` (stereo not drawn): 11.2 µM [falling, single point].
Same read-out and setting: the same measure for `CCN(CC)S(=O)(=O)c1ccc(C(=O)C(C#N)c2ccccn2)cc1` (stereo not drawn): 2.82 µM [rising, full curve].
As to `Cc1ccc(-n2ncc3c(NCCO)ncnc32)cc1Cl`, under setting [1], the AC50 is 14.1 µM [falling, single point].
